# According to patent publication US20150166987:
# For some assays here: Protein sequences can lack the tags named with them. For at least one entry, the source does not settle the construct or the ends of the probe.
# What was measured:
# Assay in all cases: pull-down
# [1] = target: T1, hHSF1 (heat shock factor 1) (UniProt Q00613); details: purified recombinant protein, protein details: N-terminal GST, immobilised on glutathione-agarose
# T1 sequence (looked up, limits assumed): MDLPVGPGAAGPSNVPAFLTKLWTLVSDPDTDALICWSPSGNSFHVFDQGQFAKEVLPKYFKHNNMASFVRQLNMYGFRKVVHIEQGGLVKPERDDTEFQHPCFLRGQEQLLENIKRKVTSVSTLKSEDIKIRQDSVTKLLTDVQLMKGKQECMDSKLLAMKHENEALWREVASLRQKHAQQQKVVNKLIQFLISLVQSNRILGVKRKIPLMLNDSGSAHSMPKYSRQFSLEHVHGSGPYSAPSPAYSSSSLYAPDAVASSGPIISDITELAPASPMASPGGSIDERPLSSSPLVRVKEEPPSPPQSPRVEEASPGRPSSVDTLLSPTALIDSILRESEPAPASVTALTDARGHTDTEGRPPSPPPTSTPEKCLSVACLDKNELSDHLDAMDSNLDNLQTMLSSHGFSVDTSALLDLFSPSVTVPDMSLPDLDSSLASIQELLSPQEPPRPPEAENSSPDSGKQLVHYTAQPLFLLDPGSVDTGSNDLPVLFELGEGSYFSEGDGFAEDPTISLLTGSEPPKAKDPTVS
# NELF-E (Drosophila) = target: T2, NELF-E (Drosophila) (UniProt P92204); details: purified recombinant protein
# T2 sequence (looked up, limits assumed): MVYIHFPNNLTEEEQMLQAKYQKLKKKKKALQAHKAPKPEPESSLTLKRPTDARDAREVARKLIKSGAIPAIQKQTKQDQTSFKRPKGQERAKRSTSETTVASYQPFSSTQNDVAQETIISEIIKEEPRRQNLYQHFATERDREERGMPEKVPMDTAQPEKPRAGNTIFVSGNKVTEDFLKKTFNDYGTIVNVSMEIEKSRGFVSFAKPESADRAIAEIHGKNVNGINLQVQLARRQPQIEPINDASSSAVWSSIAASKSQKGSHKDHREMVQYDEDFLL
# UBLCP1 = target: T3, UBLCP1 (UniProt Q8WVY7); details: purified recombinant protein
# T3 sequence (looked up, limits assumed): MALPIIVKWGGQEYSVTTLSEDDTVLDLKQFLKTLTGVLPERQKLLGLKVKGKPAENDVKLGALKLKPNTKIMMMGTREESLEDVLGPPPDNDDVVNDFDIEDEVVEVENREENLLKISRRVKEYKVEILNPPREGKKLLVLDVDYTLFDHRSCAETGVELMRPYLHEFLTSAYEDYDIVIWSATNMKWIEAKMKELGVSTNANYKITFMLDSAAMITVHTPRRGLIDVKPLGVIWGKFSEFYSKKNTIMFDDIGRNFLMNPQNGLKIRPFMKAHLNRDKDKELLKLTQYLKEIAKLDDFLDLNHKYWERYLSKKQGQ
# GFP = GFP (UniProt P42212); details: purified recombinant protein
# [2] = average over all non-GFP targets, counted as no binding
# [3] = average over non-Ni-NTA columns, background binding
# [4] = average over Ni-NTA-containing columns, attributed to Ni-NTA affinity
# [5] = average over all non-NELF-E targets, counted as no binding
# [6] = average over all non-hHSF1 targets, counted as no binding
# [7] = average over Ni-NTA-containing columns, attributed to resin/device background
sequence,measurement,setting,value
AGCUUCUGGACUGCGAUGGGAGCACGAAACGUCGUGGCGCAAUUGGGUGGGGAAAGUCCUUAAAAGAGGGCCACCACAGAAGCU [GFPapt (AP3-1)],binding signal (fold enrichment over N70 library),[1]; [2],0.6
same,binding signal (fold enrichment over N70 library),NELF-E (Drosophila); [2],0.6
same,binding signal (fold enrichment over N70 library),UBLCP1; [2],0.6
GGGAAUGGAUCCACAUCUACGAAUUCCGAAGCUCGUGACGGUACCUCCUAAAAUGUCCAUGGGGAAGGGAGGGAAUGGGAAGGACAAUCGGACACCGUUCACUGCAGACUUGACGAAGCUU [BBS2],binding signal (fold enrichment over N70 library),[1]; [3],13
same,binding signal (fold enrichment over N70 library),"GFP; average over Ni-NTA-containing columns, attributed to Ni-NTA affinity, blank Ni-NTA almost 1000-fold",311
same,binding signal (fold enrichment over N70 library),NELF-E (Drosophila); [4],311
same,binding signal (fold enrichment over N70 library),UBLCP1; [4],311
GGGAAUGGAUCCACAUCUACGAAUUCCCAACGACUGCCGAGCGAGAUUACGCUUGAGCGCCCCACUGAGGAUGCCCACGGGCGAUUGGGGCACGGCUUCACUGCAGACUUGACGAAGCUU [NELFapt (Napt1)],binding signal (fold enrichment over N70 library),[1]; [5],1.6
same,binding signal (fold enrichment over N70 library),GFP; [5],1.6
same,binding signal (fold enrichment over N70 library),UBLCP1; [5],1.6
GGGAAUGGAUCCACAUCUACGAAUUCAAUCAAGUCCCCAGACUCAGCAACACUGGACAGCGAUAUGCAGAUAACCAAGACCAAUUCACUCCAGUUCACUGCAGACUUGACGAAGCUU [HSFapt (hHSF2-R5-2)],binding signal (fold enrichment over N70 library),GFP; [6],2
same,binding signal (fold enrichment over N70 library),NELF-E (Drosophila); [6],2
same,binding signal (fold enrichment over N70 library),UBLCP1; [6],2
GGGAAUGGAUCCACAUCUACGAAUUCCGCAGGGCUAGCCGCAUGCUCAGGCCUGGCGGGUAGGGAGUUAGGGUAGGGAGACCAGGAGAGCUGGCUUCACUGCAGACUUGACGAAGCUU [BBS1],binding signal (fold enrichment over N70 library),[1]; [3],1.7
same,binding signal (fold enrichment over N70 library),GFP; [7],5.1
same,binding signal (fold enrichment over N70 library),NELF-E (Drosophila); [7],5.1
same,binding signal (fold enrichment over N70 library),UBLCP1; [7],5.1
